According to PubChem BioAssay AID212 (DTP/NCI, 2004):
The list shows only some results of the screen, not a fair sample: it gathers tests that were run many times, whatever their T/C, doses with no T/C, and many T/C values between a quarter and a half above the control. Further doses and runs are listed elsewhere. T/C is the treated group as % of the vehicle group. Schedules are NCI's codes, read here as Q, the interval in days (D) or hours (H), X, the number of doses. Some T/C values carry the count of animals alive at the toxicity check (mostly the fifth day); where none is given, no animal had died by that day. Some doses have a count of surviving animals in place of a T/C: the source holds a T/C of zero for them, seemingly a mark for toxic or unscored doses. Survivors were counted at the toxicity check, usually on the fifth day, unless a day is given; later deaths do not show. Some entries were tested several times; the results are listed from low to high.

Test system: BDF1 mice, colon carcinoma 38 sc, T/C %
Assay: NCI In Vivo Anticancer Drug Screen. Data for tumor model Colon Carcinoma 38 (subcutaneous) in B6D2F1 (BDF1) mice
Conditions: T/C endpoint: median tumor weight (est.), higher T/C = larger tumour; for T/C: evaluated on day 20
Summary of the method: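 Ratio of survival or tumor size, compound-treated animals relative to vehicle controls, in tumor-bearing mice.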

[1] = dose: 100.0 mg/kg/injection, schedule: Q07DX002 (ip), vehicle: saline with Tween-80
[2] = dose: 50.0 mg/kg/injection, schedule: Q07DX002 (ip), vehicle: Klucel (hydroxypropylcellulose) (HPC)
[3] = dose: 200.0 mg/kg/injection, schedule: Q07DX002 (ip), vehicle: saline
[4] = dose: 800.0 mg/kg/injection, schedule: Q07DX002 (ip), vehicle: saline with Tween-80
[5] = dose: 200.0 mg/kg/injection, schedule: Q07DX002 (ip), vehicle: Klucel (hydroxypropylcellulose) (HPC)
[6] = dose: 400.0 mg/kg/injection, schedule: Q07DX002 (ip), vehicle: saline
[7] = dose: 400.0 mg/kg/injection, schedule: Q07DX002 (ip), vehicle: saline with Tween-80

O=c1s[se]c2ccccc12
T/C (dose: 6.25 mg/kg/injection, schedule: Q07DX002 (ip), vehicle: saline with Tween-80): 125 % of control
survivor count [1]: 3 of 10 on day 20

CC(=O)NC(CCc1ccc(Cl)c(Cl)c1)c1cccc(O)c(=O)c1 (centres undefined)
T/C (dose: 6.25 mg/kg/injection, schedule: Q07DX002 (ip), vehicle: Klucel (hydroxypropylcellulose) (HPC)): 132 % of control
T/C (dose: 12.5 mg/kg/injection, schedule: Q07DX002 (ip), vehicle: Klucel (hydroxypropylcellulose) (HPC)): 140 % of control
T/C [2]: 132 % of control

CC1C2CCC3C(O)C2(CC(O)C2(O)C1CC(O)C2(C)C)CC3(C)O (centres undefined)
T/C (dose: 0.25 mg/kg/injection, schedule: Q07DX002 (ip), vehicle: Klucel (hydroxypropylcellulose) (HPC)): 127 % of control
T/C (dose: 1.0 mg/kg/injection, schedule: Q07DX002 (ip), vehicle: Klucel (hydroxypropylcellulose) (HPC)): 129 % of control [9 of 10 alive on day 20]
survivor count (dose: 4.0 mg/kg/injection, schedule: Q07DX002 (ip), vehicle: Klucel (hydroxypropylcellulose) (HPC)): 2 of 10 on day 20

O=C(O)C(O)C(O)C1[O][Sb][O]C1C(=O)O (centres undefined)
survivor count [3]: 0 of 10 on day 20

CCN(CC)CCCC(C)Nc1c2ccc(Cl)cc2nc2ccc(OC)cc12 (centres undefined)
T/C (dose: 64.0 mg/kg/injection, schedule: Q07DX003 (ip), vehicle: suspension in saline): 128 % of control

Cc1cc(O)c(N=Nc2ccc(C(=O)O)cc2)cc1C
survivor count [4]: 1 of 10 on day 20

CCCCCCCCCCS(=O)CC(CO)NC(=O)/C=C/c1c(C)[nH]c(=O)[nH]c1=O (centres undefined)
T/C (dose: 12.0 mg/kg/injection, schedule: Q07DX002 (ip), vehicle: distilled water + Tween-80): 129 % of control
survivor count (dose: 96.0 mg/kg/injection, schedule: Q07DX002 (ip), vehicle: distilled water + Tween-80): 0 of 10 on day 20

COc1cc(NS(C)(=O)=O)ccc1Nc1c2ccccc2nc2ccccc12
T/C (dose: 1.0 mg/kg/injection, schedule: Q07DX002 (ip), vehicle: other): 138 % of control
survivor count (dose: 16.0 mg/kg/injection, schedule: Q07DX002 (ip), vehicle: other): 4 of 10 and 5 of 10
survivor count (dose: 16.0 mg/kg/injection, schedule: Q07DX003 (ip), vehicle: other): 2 of 10

O=C1C=CN(C2OC(CO)C(O)C2O)C(=O)C1 (centres undefined)
T/C (dose: 50.0 mg/kg/injection, schedule: Q07DX003 (ip), vehicle: saline): 134 % of control
T/C (dose: 400.0 mg/kg/injection, schedule: Q07DX003 (ip), vehicle: saline): 130 % of control

C[n+]1ccc(Nc2ccc(NC(=O)c3ccc(Nc4cc[n+](C)c5ccc(N)cc45)cc3)cc2)cc1
T/C (dose: 4.0 mg/kg/injection, schedule: Q07DX002 (ip), vehicle: water): 137 % of control
T/C (dose: 8.0 mg/kg/injection, schedule: Q07DX002 (ip), vehicle: water): 143 % of control [9 of 10 alive]
survivor count (dose: 16.0 mg/kg/injection, schedule: Q07DX002 (ip), vehicle: water): 2 of 10

N#Cc1cn(C2OC(CO)C(O)C2O)c2ncnc(N)c12 (centres undefined)
survivor count (dose: 0.5 mg/kg/injection, schedule: Q07DX002 (ip), vehicle: saline): 6 of 10 on day 20
survivor count (dose: 4.0 mg/kg/injection, schedule: Q07DX002 (ip), vehicle: saline): 0 of 10 on day 20

Cc1cc2c(c3oc(C4(C)OC4C4OC4C)cc(=O)c13)C(=O)c1c(O)c(C3CC(C)(N(C)C)C(O)C(C)O3)cc(C3CC(N(C)C)C(O)C(C)O3)c1C2=O (centres undefined)
survivor count (dose: 1.88 mg/kg/injection, schedule: Q07DX002 (ip), vehicle: Klucel (hydroxypropylcellulose) (HPC)): 0 of 10 on day 20
survivor count (dose: 3.75 mg/kg/injection, schedule: Q07DX002 (ip), vehicle: Klucel (hydroxypropylcellulose) (HPC)): 0 of 10 on day 20
survivor count (dose: 7.5 mg/kg/injection, schedule: Q07DX002 (ip), vehicle: Klucel (hydroxypropylcellulose) (HPC)): 0 of 10 on day 20
survivor count (dose: 15.0 mg/kg/injection, schedule: Q07DX002 (ip), vehicle: Klucel (hydroxypropylcellulose) (HPC)): 0 of 10 on day 20
survivor count (dose: 30.0 mg/kg/injection, schedule: Q07DX002 (ip), vehicle: Klucel (hydroxypropylcellulose) (HPC)): 0 of 10 on day 20
survivor count (dose: 58.8 micrograms/kg/injection, schedule: Q07DX002 (ip), vehicle: Klucel (hydroxypropylcellulose) (HPC)): 1 of 10 on day 20
survivor count (dose: 117.5 micrograms/kg/injection, schedule: Q07DX002 (ip), vehicle: Klucel (hydroxypropylcellulose) (HPC)): 0 of 10 on day 20
survivor count (dose: 235.0 micrograms/kg/injection, schedule: Q07DX002 (ip), vehicle: Klucel (hydroxypropylcellulose) (HPC)): 0 of 10 on day 20
survivor count (dose: 470.0 micrograms/kg/injection, schedule: Q07DX002 (ip), vehicle: Klucel (hydroxypropylcellulose) (HPC)): 0 of 10 on day 20
survivor count (dose: 940.0 micrograms/kg/injection, schedule: Q07DX002 (ip), vehicle: Klucel (hydroxypropylcellulose) (HPC)): 0 of 10 on day 20

CN(C)N=Nc1ccccc1
survivor count [5]: 0 of 10 on day 20 and 2 of 10 on day 20

C1CNCOC1
T/C (dose: 12.5 mg/kg/injection, schedule: Q07DX002 (ip), vehicle: saline): 143 % of control
T/C (dose: 50.0 mg/kg/injection, schedule: Q07DX002 (ip), vehicle: saline): 126 % of control
survivor count [3]: 6 of 10 on day 20
survivor count [6]: 0 of 10 on day 20

O=Cc1ccc(O)c(O)c1
T/C [6]: 129 % of control [8 of 10 alive on day 20]
survivor count [4]: 0 of 10 on day 20

O=[n+]1c2ccccc2n([O-])c2ccccc21.[Cl][Ni][Cl]
survivor count (dose: 50.0 mg/kg/injection, schedule: Q07DX002 (ip), vehicle: saline with Tween-80): 5 of 10 on day 20
survivor count [1]: 0 of 10 on day 20

Nc1cc(Cl)c2[nH]cnc2n1
survivor count (dose: 400.0 mg/kg/injection, schedule: Q07DX002 (ip), vehicle: distilled water + Tween-80): 2 of 10 on day 20 and 6 of 10 on day 20
survivor count (dose: 800.0 mg/kg/injection, schedule: Q07DX002 (ip), vehicle: distilled water + Tween-80): 2 of 10 on day 20
survivor count (dose: 1600.0 mg/kg/injection, schedule: Q07DX002 (ip), vehicle: distilled water + Tween-80): 0 of 10 on day 20

CCOC(=O)C1=C(C#N)C2(CCC(OCc3ccccc3)CC2)C(=O)O1 (centres undefined)
T/C (dose: 50.0 mg/kg/injection, schedule: Q07DX002 (ip), vehicle: suspension in saline): 149 % of control
T/C (dose: 200.0 mg/kg/injection, schedule: Q07DX002 (ip), vehicle: suspension in saline): 145 % of control

NCC1CCC(C(=O)O)CC1 (centres undefined)
survivor count [7]: 1 of 10 on day 20
survivor count [4]: 0 of 10 on day 20

O=C1C=C[C@H](O)[C@@]2(CO)O[C@@H]12
survivor count (dose: 20.0 mg/kg/injection, schedule: Q07DX002 (ip), vehicle: saline with Tween-80): 5 of 10 on day 20

CC(=O)Nc1ccc(/C=N/NC(N)=S)cc1
T/C [2]: 133 % of control
T/C (dose: 400.0 mg/kg/injection, schedule: Q07DX002 (ip), vehicle: Klucel (hydroxypropylcellulose) (HPC)): 138 % of control [9 of 10 alive on day 20]
T/C (dose: 450.0 mg/kg/injection, schedule: Q07DX002 (ip), vehicle: saline with Tween-80): 133 % of control
T/C (dose: 900.0 mg/kg/injection, schedule: Q07DX002 (ip), vehicle: saline with Tween-80): 137 % of control

Cn1c2nc(=O)n(-c3ccccc3)c(=O)c-2nc2c1CCCC2
survivor count (dose: 200.0 mg/kg/injection, schedule: Q07DX002 (ip), vehicle: saline with Tween-80): 0 of 10 on day 20
survivor count [7]: 0 of 10 on day 20

CC(C)NCC(O)COc1ccc(O)c(O)c1 (centres undefined)
survivor count [6]: 0 of 10 on day 20
survivor count (dose: 800.0 mg/kg/injection, schedule: Q07DX002 (ip), vehicle: saline): 0 of 10 on day 20

CCCC(=O)OCc1cc(=O)n(C)c2c3c4c(cc12)c(C)cc(=O)n4CO3
survivor count [5]: 0 of 10 on day 20
